The numbers were not newly measured in US20040018253A1, “Use of CYP2D6 inhibitors in combination therapies” (priority 1999, published 2004), which cites them from elsewhere.

The conditions of series [1]: increasing dose; not observed in poor metabolizers; cited from earlier work.
The conditions of series [2]: poor vs extensive metabolizers; cited from earlier work.

In the case of `CCCNCC(O)COc1ccccc1C(=O)CCc1ccccc1` (centres unmarked) [propafenone], in series [1], the dose-exposure relationship result was “supraproportional”. In addition, the “exposure after oral administration, PM's vs. EM's” value in series [2] was 4.2 fold.
